These are yes or no findings as the source states them, for the method shown. Binding seen in cells or lysates may run through a third protein. Some binding calls cover weakened binding; strength is not graded here. Tags and fused reporters may be left off the sequences shown.
Target: B-Raf (Flag-B-Raf) (UniProt P15056)
Test: co-IP; HA-HO-1 co-transfected with or without Flag-B-Raf into HEK293T cells; immunoprecipitated with anti-Flag antibody, immunoblotted with antibodies against HA and Flag

Chains of the proteins cited; added tags and fusions are not shown.
UniProt P15056: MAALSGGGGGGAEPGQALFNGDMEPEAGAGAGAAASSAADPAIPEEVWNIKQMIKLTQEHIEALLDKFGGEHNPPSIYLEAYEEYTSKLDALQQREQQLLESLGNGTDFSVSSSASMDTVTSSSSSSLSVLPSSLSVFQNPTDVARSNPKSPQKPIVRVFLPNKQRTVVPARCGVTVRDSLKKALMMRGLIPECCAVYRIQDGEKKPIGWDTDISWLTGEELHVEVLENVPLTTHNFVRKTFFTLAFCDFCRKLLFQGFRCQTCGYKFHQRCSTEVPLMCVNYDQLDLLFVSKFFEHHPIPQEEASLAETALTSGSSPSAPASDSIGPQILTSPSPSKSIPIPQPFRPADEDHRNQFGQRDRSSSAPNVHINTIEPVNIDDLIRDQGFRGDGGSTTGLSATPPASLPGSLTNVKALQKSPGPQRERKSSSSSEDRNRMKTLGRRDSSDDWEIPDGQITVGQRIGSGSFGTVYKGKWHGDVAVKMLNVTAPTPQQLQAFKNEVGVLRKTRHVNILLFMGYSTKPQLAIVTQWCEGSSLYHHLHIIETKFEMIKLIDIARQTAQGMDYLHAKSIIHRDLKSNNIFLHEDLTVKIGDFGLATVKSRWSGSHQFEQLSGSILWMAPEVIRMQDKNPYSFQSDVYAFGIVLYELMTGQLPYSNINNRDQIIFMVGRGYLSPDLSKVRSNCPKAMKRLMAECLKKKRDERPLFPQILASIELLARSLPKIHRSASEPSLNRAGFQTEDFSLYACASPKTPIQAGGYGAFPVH

B1: Heme oxygenase 1 (HA-HO-1) (enzyme, UniProt P09601 1-288)
chain: MERPQPDSMPQDLSEALKEATKEVHTQAENAEFMRNFQKGQVTRDGFKLVMASLYHIYVALEEEIERNKESPVFAPVYFPEELHRKAALEQDLAFWYGPRWQEVIPYTPAMQRYVKRLHEVGRTEPELLVAHAYTRYLGDLSGGQVLKKIAQKALDLPSSGEGLAFFTFPNIASATKFKQLYRSRMNSLEMTPAVRQRVIEEAKTAFLLNIQLFEELQELLTHDTKDQSPSRAPGLRQRASNKVQDSAPVETPRGKPPLNTRSQAPLLRWVLTLSFLVATVAVGLYAM
binding: binds

Source: paper PMC6329143
